# Several values for one entry are separate records, joined by “and”; a condition that tells them apart may be missing. Equal entries are not always repeated. About 170 (0.05%) of roughly 340,000 compounds were called active. Inconclusive means that the source gave no clear call. Such entries were picked first, then a sample of the others. Calls come from the whole dose curve; as a rule, active = well fitted inhibition curve with a large enough effect in the signal ratio, with a control signal flat (not every such curve was filed as active); inconclusive = small, poorly fitted or top-dose-only effect, or effect the other way, or a change in a side signal; inactive = flat fitted curve, though single readings scatter; the % refers to the signal ratio. Potencies beside an inconclusive call are fits to weak or partial responses and may not hold up.
# Experiment: qHTS Assay to Find Inhibitors of Chronic Active B-Cell Receptor Signaling;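 for activity change, negative = inhibition: plate controls were basal doxycycline-induced cells for no effect and cells given 10 µM MG132 for full effect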
# Conditions: ABC-DLBCL IkBa-CBG/CBR reporter, luminescence ratio (green luciferase fused to IkBa over red control in TMD8 lymphoma cells), 4 h; activity change, negative = inhibition: at 46.1 µM (top of the series)
# Summary of the method: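 Cell line TMD8 (human ABC DLBCL), stably expressing tet-inducible CBG68-IkBa fusion and CBR; IMDM/0.5% FBS; cpd up to 46 uM; dox induction, 4 h, 37C/5% CO2; dual luminescence; green/red ratio; MG132 control.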
# Potency is the fitted concentration of half-maximal effect.
Structure (SMILES),"activity change, negative = inhibition",Potency
C/C(=N\NC(=O)Nc1ccccc1)c1ccc2ccccc2c1,inconclusive: -1.71%,–
Cc1ccccc1NC(=O)c1cn(-c2ccccc2)nc1-c1ccccc1,inconclusive: 0.257%,–
O=C(COc1ccc(NC(=O)c2ccccc2[N+](=O)[O-])cc1)c1ccc(F)cc1,inconclusive: -9.15%,–
O=C(NCCCNc1ccc(C(F)(F)F)cc1[N+](=O)[O-])c1cc(F)c(F)cc1Cl,inactive: -3.5%,–
Cc1ccccc1-c1ccnc2[nH]n(-c3ccccc3)c(=O)c12,inconclusive: -7.92%,–
CC(NC(=O)CSc1nnc(-c2cccc(S(=O)(=O)N3CCCCC3)c2)o1)C12CC3CC(CC(C3)C1)C2 (stereo not drawn),inconclusive: 18.7%,–
C/C(=N\NC(=O)c1nc2ccccn2c1C)c1cc2ccccc2o1,–,"inconclusive: 14.1 µM [falling, single point]"
O=C(/C=C/c1ccc(NC(=O)c2ccccc2-c2ccccc2C(=O)O)cc1)c1ccccc1,–,"inconclusive: 22.4 µM [falling, single point]"
CN(C(=O)/C=C/c1cnc2ccccc2c1)C1CCCCC1,–,"inconclusive: 35.5 µM [falling, single point]"
Nc1nonc1C(=Nc1ccc(Br)cc1)NO,–,"inconclusive: 6.51 µM [falling, single point]"
Cc1nonc1NC(=O)CSc1nc2ccccc2[nH]1,–,"inconclusive: 35.5 µM [falling, single point]"
CCN(CCS(=O)(=O)c1ccc(Br)cc1)Cc1nc2ccccc2c(=O)[nH]1,inconclusive: -10.9%,–
O=C(CNC(=O)Cc1ccccc1)NCC(=O)OCc1ccc(C(=O)c2ccccc2)cc1,inconclusive: 7.09%,–
CC(=O)NC(=S)Nc1ccc(NC(=O)COc2ccc(C(C)C)cc2)cc1,inactive: -3.15%,–
CC(C)(C)C1CCc2onc(C(=O)NCc3ccc(F)cc3)c2C1 (stereo not drawn),inconclusive: -7.7%,–
CCCCC(=O)Nc1ccc(C(=O)NNC(=S)NC(=O)c2ccco2)cc1,inactive: -0.0192%,–
COc1ccc(NC(=S)N2CCN(c3ccc([N+](=O)[O-])cc3)CC2)cc1OC,inactive: 1.76%,–
CCN(CC(=O)Nc1ccccc1OC)Cc1csc(CC(=O)Nc2ccc(C)cc2)n1,inactive: -4.12%,–
N=c1n(CCCOc2ccccc2Cl)c2ccccc2n1CC(N)=O,inconclusive: -5.24%,–
Nn1c(SCC(=O)N2CCCC2=O)nnc1-c1cccs1,inactive: -0.528%,–
CC(=O)Nc1ccc(S(=O)(=O)N2CCN=C2SCc2ccccc2C)cc1,inconclusive: -3.6%,–

Structure (SMILES),"activity change, negative = inhibition",Potency
CC(C)c1ccc(NC(=O)CSC2=Nc3ccccc3C3=NC(CC(=O)NCc4cccs4)C(=O)N23)cc1 (stereo not drawn),inconclusive: 5.94%,–
O=C1CC(c2ccccc2)n2nc(NC(=O)c3ccccn3)nc2N1 (stereo not drawn),inactive: 0.434%,–
CC1(C)Cc2ccccc2-c2nnnn21,inactive: 3.03%,–
Nc1nc(NCc2c(F)cccc2Cl)nn1-c1ccccc1,–,"inconclusive: 29.1 µM [falling, single point]"
COc1ccccc1C(CCN(Cc1ccccc1)C(C)=O)c1ccco1 (stereo not drawn),–,"inconclusive: 35.5 µM [falling, single point]"
CCc1ccc(NC(=O)C(C)Oc2nnc(-c3cccs3)c(-c3cccs3)n2)cc1 (stereo not drawn),inconclusive: -0.818%,–
CCOc1ccc(NS(=O)(=O)c2ccc3[nH]cc(C(=O)N(CC)CC)c(=O)c3c2)cc1,inconclusive: -3.12%,–
CC/C(=N\Nc1nncc2ccccc12)c1ccc(F)cc1,–,"inconclusive: 25.1 µM [falling, single point]"
N=C1C(c2nc(-c3ccc(F)cc3)cs2)=C(O)CN1Cc1ccc(Cl)cc1,inconclusive: 14.8%,–
Cc1ccc(-n2nc3c(N4CCC(C(=O)NCc5ccc(C)o5)CC4)nnc(C)c3c2C)cc1,inactive: -1.16%,–
CC(O)C(O)C(O)C(O)/C=N/NC(=O)c1ccccc1 (stereo not drawn),–,"inconclusive: 25.9 µM [rising, single point]"
Fc1c(F)c(C(F)(F)F)c(F)c(F)c1N/N=C\c1cccs1,inconclusive: 23.9%,–
Cc1cccc(OCC(=O)O/N=C(\N)c2ccc(Cl)cc2)c1,inconclusive: 8.01%,–
CCCCNC(=O)Nc1ccccc1CC,inconclusive: -2.46%,–
CN1CCC(=C2c3ccccc3CCc3sccc32)CC1,inconclusive: -1.92% and inconclusive: -4.54%,–
COc1ccc(NC(=O)CSCC(=O)N(C)Cc2ccc(Cl)c(Cl)c2)cc1,inconclusive: -18.5%,–
Cc1cnc(NC(=O)c2cc3c(s2)CCCC3)s1,–,"inconclusive: 18.4 µM [falling, single point]"
Nc1nnc(Cc2cccc(Br)c2)s1,inactive: 4.87%,–
COc1ccc(/C=N/NC(=O)c2[nH]ncc2Br)c(OC)c1,–,"inconclusive: 14.6 µM [falling, partial curve]"
COc1ccc(CN2CCc3c([nH]c4ccccc34)C2)cc1Br,inconclusive: -6.24%,–
COc1ccc2nc3oc(C(=O)N4CC(C)CC(C)C4)cc3cc2c1 (stereo not drawn),inactive: 10.7%,–

# Individual results from the list:
# Under Potency, Nc1nc(NCc2c(F)cccc2Cl)nn1-c1ccccc1 has the entry inconclusive: 29.1 µM [falling, single point]
# Under Potency, CN(C(=O)/C=C/c1cnc2ccccc2c1)C1CCCCC1 has the entry inconclusive: 35.5 µM [falling, single point]
# Under activity change, negative = inhibition, CC(C)(C)C1CCc2onc(C(=O)NCc3ccc(F)cc3)c2C1 (stereo not drawn) has the entry inconclusive: -7.7%
# Under activity change, negative = inhibition, CC(NC(=O)CSc1nnc(-c2cccc(S(=O)(=O)N3CCCCC3)c2)o1)C12CC3CC(CC(C3)C1)C2 (stereo not drawn) has the entry inconclusive: 18.7%

# Next part.

Structure (SMILES),"activity change, negative = inhibition",Potency
CC(NC(=O)c1ccco1)C(=O)OCc1cccc(C(F)(F)F)c1 (stereo not drawn),inconclusive: 0.0551%,–
COc1cc(/C=N/n2nnnc2N)ccc1OCC#N,inconclusive: -2.65%,–
CCOC(=O)c1c(NC(=O)CCC(=O)O)sc2c1CCCCC2,inconclusive: -18.7%,–
Cc1ccc(OCC(=O)N2N=C(c3ccc(Cl)cc3)CC2c2ccco2)c([N+](=O)[O-])n1 (stereo not drawn),inactive: 3.86%,–
CC(CNC(=O)CCC(=O)N1CCOc2ccc(Cl)cc21)c1ccccc1 (stereo not drawn),inconclusive: -3.05%,–
CC[C@]12c3[nH]c4cc(CCC(=O)N(C)C)ccc4c3CCN1C(=O)[C@@H](CC(=O)NCC13CC4CC(CC(C4)C1)C3)C[C@@H]2C(=O)N1CCN(C(=O)C2CC2)CC1,–,"inconclusive: 29.1 µM [falling, single point]"
COCCn1c(N)c(Sc2ccc(C)cc2)c(=O)[nH]c1=O,inactive: 2.44%,–
CC(NC(=O)CN(C)Cc1nc2ccccc2c(=O)[nH]1)c1ccccc1 (stereo not drawn),inconclusive: -6.64%,–
CCCCC1=CC2=CC(=O)C(C)(OC(=O)CC)C(=O)C2=CN1Cc1ccc(OC)cc1 (stereo not drawn),inconclusive: 5.08%,–
Cc1sc(NC(=O)C2CC=CCC2C(=O)O)c(C(=O)OC(C)C)c1C (stereo not drawn),–,"inconclusive: 1.84 µM [rising, full curve, poor fit]"
Cc1ccc(-c2nc3ccccc3o2)cc1NC(=S)NC(=O)c1cccs1,inconclusive: 16.1%,–
CCc1nnc(NC(=O)Cc2ccc(OC)cc2)s1,–,"inconclusive: 0.00461 µM [rising, full curve, poor fit]"
COc1ccc(-n2nc3cc(C)c(N)c(Br)c3n2)cc1,inconclusive: -0.765%,–
Cc1cccc(NC(=O)Cc2c(F)cccc2Cl)n1,inconclusive: -1.52%,–
O=C(CC1Oc2ccccc2NC1=O)NC1CCCC1 (stereo not drawn),–,"inconclusive: 2.06 µM [falling, partial curve, poor fit]"
COc1cc(OC)c2cc(C(=O)N/N=C/c3ccccc3O)[nH]c2c1,inactive: 2.59%,–
Cc1ccc2[nH]c3c(N4CCCCCC4)ncnc3c2c1,inactive: -1.88%,–
COc1ccccc1Oc1ccnc2cc(Cl)ccc12,inconclusive: -11.8%,–
C=CCc1c(OC)ccc2ccc(=O)oc12,inactive: -1.3%,–
CCOC(=O)c1cc(C)n(-c2c(C)n(C)n(-c3ccccc3)c2=O)c1C,inconclusive: 10.7%,–
COc1ccc(S(=O)(=O)N2CCCC2CNC(=O)C(=O)NCCc2ccccc2)cc1 (stereo not drawn),inconclusive: 1.09%,–

Structure (SMILES),"activity change, negative = inhibition",Potency
COc1cc(NC(=O)c2cccs2)ccc1NC(=O)c1ccccc1Cl,inconclusive: 27.8%,–
COc1ccc(C2=C(C(C)=O)Sc3nnc(-c4ccc(Cl)cc4)n3N2C(C)=O)cc1OC,inactive: -2.85%,–
COc1ccc(CCNC(=S)c2ccccc2)cc1OC,inconclusive: -0.128%,–
Brc1ccccc1C1CC(c2ccccc2)=Nc2ccccc2N1 (stereo not drawn),inconclusive: -9.54%,–
C/C(=N/NC(=O)c1ccc2c(c1)OCCO2)c1ccc([N+](=O)[O-])cc1,inconclusive: -27.8%,–
C=CCn1c(N)c(C(=O)NCc2cccnc2)sc1=S,inconclusive: 14.4%,–
COc1ccc2c(Cl)c(-c3nnc(SCC(=O)c4ccccc4)n3C)sc2c1,–,"inconclusive: 29.1 µM [rising, partial curve, poor fit]"
c1ccc(-n2ncc3c(NCc4cccs4)ncnc32)cc1,inconclusive: -0.185%,–
CCOC(=O)C1=C(C)NC(=S)N(C(C)=O)C1c1ccc(Cl)cc1 (stereo not drawn),–,"inconclusive: 0.326 µM [falling, full curve, poor fit]"
O=C(/C=C/c1ccc(F)cc1)Nc1ccc(S(=O)(=O)N2CCOCC2)cc1,inactive: 1.34%,–
NC(=O)CSc1nnc(-c2cccs2)n1Cc1ccco1,–,"inconclusive: 6.31 µM [falling, single point]"
CC(C)Cn1c(=O)c2c(nc3n2CCCN3CCc2ccccc2)n(C)c1=O,inconclusive: -0.951%,–
CC(C)(C)c1cccc(Cn2nnc3ccccc32)c1O,–,"inconclusive: 32.6 µM [falling, single point]"
Fc1ccc(C(CCNCc2ccccn2)c2ccc(Cl)cc2)cc1 (stereo not drawn),inconclusive: -18.2%,–
O=C(NC(=S)NCCc1ccccc1)c1ccco1,inconclusive: 2.17%,–
O=C(NC1CCCCC1)C(c1ccco1)N(Cc1cccs1)C(=O)Cn1nnc2ccccc21 (stereo not drawn),inactive: -3.92%,–
CC(=O)N1CC=CC1(C)C(=O)NCc1cc(F)cc(C(F)(F)F)c1 (stereo not drawn),inactive: -1.26%,–
CCc1cc(-c2n[nH]c(C)c2-c2ccccc2Cl)c(O)cc1OC,inconclusive: -22.2%,–
Cc1oc(-c2ccc3c(c2)OCCO3)cc1C(=O)O,inconclusive: -1.75%,–
NC(=O)c1ccc(NC(=O)COC(=O)CCN=C2NS(=O)(=O)c3ccccc32)cc1,inactive: 1.01%,–

# Source: PubChem BioAssay AID493014 (National Center for Advancing Translational Sciences (NCATS), 2011)
